PubChem BioAssay AID1259424, University of Nebraska Medical Center – 2018

- Test: 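Seek colon cancer survival genes behaving like KSR1, using a six-gene signature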 (primary screen)
- Cells: human HCT116 colon cancer cells
- Reagents: siRNA pool against human genes, 50 nM
- Measured: 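Log2 levels of six mRNAs (branched-DNA multiplex), adjusted by two reference genes and the non-targeting median, then scored against the average KSR1 knockdown pattern as Pearson r and euclidean distance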
- Reading the numbers: mean correlation with KSR1 profile and KSR1 correlation: higher = expression change more like KSR1 knockdown; mean distance from KSR1 profile: higher = expression change less like KSR1 knockdown
In all, the deposit lists about 14,000 reagents; this is a random part of them. 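Higher correlation or smaller distance means closer resemblance to KSR1 loss; control wells, including KSR1 knockdowns, recur on many plates.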 No sequences are given here. Not given: the time to read-out.

gene	mean correlation with KSR1 profile	mean distance from KSR1 profile	KSR1 correlation, replicate 1	KSR1 correlation, replicate 2	KSR1 correlation, replicate 3
FURIN	-0.202	3.13	-0.288	0.0561	-0.0767
SELENOT	-0.627	4.69	-0.51	-0.695	-0.572
TAP2	0.458	1.36	0.176	0.321	0.757
NUAK1	0.411	2.24	0.491	0.112	0.214
NHLH1	0.541	1.06	0.848	0.404	0.267
ASIC4	0.0793	3.34	0.305	0.177	0.012
CLDN6	-0.203	2.44	-0.113	-0.0322	-0.173
APCS	0.346	1.47	0.403	0.425	-0.236
IL5	0.624	0.696	0.469	0.467	0.67
ADAM9	0.102	2.8	0.00454	-0.0458	-0.199
NTF3	-0.13	1.44	-0.0281	0.0825	-0.274
CBX8	0.17	2.25	0.133	0.3	0.11
MT1A	0.0926	1.6	-0.0445	-0.136	-0.0781
GAK	-0.595	3.3	0.136	-0.882	-0.754
TP53BP1	-0.363	2.35	-0.2	-0.145	-0.226
CREBBP	-0.324	2.89	0.444	-0.417	-0.361
KIF5C	-0.323	1.29	-0.502	0.00206	-0.278

As entered above:
CLDN6, mean correlation with KSR1 profile = -0.203
Entry for KIF5C under “KSR1 correlation, replicate 2”: 0.00206
Result for NTF3 under “mean distance from KSR1 profile”: 1.44
Result of IL5 under “KSR1 correlation, replicate 1”: 0.469
For “KSR1 correlation, replicate 1”, SELENOT is entered as -0.51

The list goes on:
gene	mean correlation with KSR1 profile	mean distance from KSR1 profile	KSR1 correlation, replicate 1	KSR1 correlation, replicate 2	KSR1 correlation, replicate 3
PIGC	0.126	1.45	0.131	0.383	0.233
MRPL14	0.534	1.97	0.556	0.345	0.363
SCAMP3	0.323	1.14	0.383	0.257	0.32
DHODH	0.625	1.64	0.373	0.731	0.777
PPIF	-0.137	1.02	0.0609	-0.525	0.0258
PCDHB9	0.0178	2.56	-0.116	-0.124	0.0681
HTATSF1	-0.711	3.79	-0.654	-0.71	-0.692
AOC3	0.368	2.73	0.37	0.514	0.203
LLGL2	-0.275	3.72	-0.333	-0.348	-0.301
CYTH1	0.0683	1.32	-0.257	0.484	0.139
CPA4	-0.0694	3.07	0.057	-0.224	-0.0453
TPT1	0.0334	1.88	-0.0926	-0.0392	0.0842
SLC33A1	-0.231	1.74	0.0309	-0.254	-0.272
ADRM1	0.692	0.854	0.764	0.823	0.485
DENND11	-0.00314	2.69	0.0418	-0.151	-0.173
PTEN	-0.726	2.17	-0.64	-0.831	-0.635
GPATCH3	-0.397	6.81	-0.185	-0.2	-0.204
